A short description of the test: qHTS Assay for Modulators of Lamin A Splicing. The conditions noted are these: HeLa LMNA splicing GFP/RFP minigene ratio, 48 h. In outline: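 Read-out is the ratio of GFP to DsRed2 object intensity, acquired by 488 nm laser-scanning cytometry on HeLa lamin A-EGFP minigene reporter cells. Compound incubation 48 hrs at 37 °C in Opti-MEM with 2% FBS; DMSO 0.5% final.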

The mark [1] stands for this setting: measured here: RFP viability control channel.
Where [2] appears, read: measured here: GFP splicing reporter channel.

Each structure is given as a SMILES string. The list shows a part of the results. Shown are side measurements of this screen, not its main read-out; they come without a call. The list favours compounds with an active or inconclusive main result. The note in brackets gives the kind of curve behind each potency; many fits are weak.

As to `O=C(CCCC(=O)N(CC(=O)NC1CCCC1)C1CCCC1)Nc1ccccn1`, the AC50 under setting [1] is 35.5 µM [rising, single point].

Turning to `CCN1CCC[C@@H](OC(=O)C(c2ccccc2)c2ccccc2)C1`, the AC50 under setting [2] was 0.316 µM [falling, single point].

Consider `CCOC(=O)C1=NN(C(C)=O)C2(CC(=O)N(c3ccc(C)c(C)c3)C2=O)C1` (centres undefined), for which the AC50 reads like this: under setting [2], 5.01 µM [rising, full curve]; under setting [1], 3.98 µM [rising, full curve, poor fit].

For `CC#CCN1c2ccccc2[C@]23C[C@@H](C(=O)OC)N(S(=O)(=O)c4ccc(OC)cc4)C2=NC(C(=O)OC)=C(C(=O)OC)[C@H]13`, the AC50 under setting [2] was 0.891 µM [rising, full curve, poor fit].

As for `O=C(CSCc1ccc(F)cc1)N1CCN(c2ccc(F)cc2)CC1`, the AC50 under setting [2] is 11.2 µM [rising, partial curve] and the AC50 under setting [1] is 15.8 µM [rising, partial curve].

For `Nc1ncc(-c2nnnn2-c2ccc(Cl)cc2)c(-c2ccc(Cl)cc2)n1`, the AC50 by setting is: under setting [2], 12.6 µM [falling, single point]; under setting [1], 11.2 µM [falling, partial curve].

With `Cc1ccccc1NC(=O)COc1ccc(Br)cc1C`, under setting [1], the AC50 was 11.2 µM [falling, partial curve, poor fit].

In the case of `N=C(c1cccc([N+](=O)[O-])c1)N1CCCCC1`, the AC50 under setting [1] was 0.01 µM [falling, full curve, poor fit].

Regarding `COCCNC(=S)N1CCc2cc(OC)c(OC)cc2C1COc1ccc(F)cc1` (centres undefined), the AC50 runs as follows: under setting [2], 4.47 µM [falling, full curve]; under setting [1], 3.55 µM [falling, full curve, poor fit].

As to `CCOC(=O)c1cc2occc2n1CC(=O)Nc1ccc(OC)cc1OC`, the AC50 under setting [1] was 35.5 µM [rising, single point].

In the case of `CN(c1cccc(Cl)c1)S(=O)(=O)c1cccc(C(=O)Nc2nc3ccccc3[nH]2)c1`, the AC50 was 6.31 µM [falling, partial curve, poor fit] under setting [2] and 35.5 µM [falling, single point] under setting [1].

With `CCC(C)NC(=S)N1CCN(C(c2ccccc2)c2ccccc2)CC1` (centres undefined), the AC50 is, setting by setting: under setting [2], 35.5 µM [rising, single point]; under setting [1], 31.6 µM [rising, single point].

Turning to `CN1CCN(c2ncnc3ccc(-c4ccc5c(c4)OCO5)cc23)CC1`, the AC50 by setting is: under setting [2], 11.2 µM [falling, single point]; under setting [1], 0.251 µM [falling, full curve, poor fit].

On to `O=c1[nH]c(NC2CCCCC2)nnc1Cc1ccccc1`, for which the AC50 is 0.501 µM [falling, full curve, poor fit] under setting [2] and 0.501 µM [falling, full curve, poor fit] under setting [1].

With `COC(=O)/C(=N/Nc1ccccc1C)N1CCCc2ccccc21`, the AC50 under setting [1] is 12.6 µM [rising, partial curve, poor fit].

For the compound `COc1ccc(N2CCN(C(=O)c3ccc(-n4nc(C)cc4C)cc3)CC2)cc1`, the AC50 runs as follows: under setting [2], 20 µM [rising, partial curve, poor fit]; under setting [1], 22.4 µM [rising, single point].

For the compound `CN(C)CC(O)CN1C(=O)NC(C)(C)C1=O` (centres undefined), the AC50 is, setting by setting: under setting [2], 1.26 µM [falling, partial curve, poor fit]; under setting [1], 0.631 µM [falling, full curve].

Consider `CCn1cc(S(=O)(=O)c2cc(C)cc(C)c2)c(=O)c2cc(F)c(N3CCCC3)cc21`, for which the half-maximal activity concentration (AC50) under setting [2] is 0.0224 µM [falling, full curve, poor fit].

On to `C#CCn1c(=NC(=O)c2ccc(S(=O)(=O)N3CCc4ccccc4C3)cc2)sc2cc(S(N)(=O)=O)ccc21`, for which, under setting [1], the AC50 is 15.8 µM [falling, partial curve, poor fit].

As to `COc1ccc(N2CCN(C(=O)c3ccc(N(C)S(=O)(=O)c4ccc(OC)cc4)cc3)CC2)cc1`, the AC50 runs as follows: under setting [2], 10 µM [falling, partial curve]; under setting [1], 6.31 µM [falling, full curve, poor fit].

As to `O=C(NCCc1ccc2c(c1)OCCO2)c1ccccc1F`, the AC50 was 12.6 µM [rising, partial curve, poor fit] under setting [2] and 14.1 µM [rising, partial curve] under setting [1].

As to `COc1ccccc1N1CCN(c2ncnc3c2oc2ccccc23)CC1`, under setting [1], the AC50 is 5.01 µM [rising, full curve].

`CCOC(=O)c1c(-c2ccc(F)cc2)csc1NC(=O)c1c(-c2ccccc2)noc1C`: the AC50 under setting [1] was 8.91 µM [rising, partial curve].

Take `CC1(C(=O)NCCN2CCOCC2)C=CCN1C(=O)c1ccccc1` (centres undefined): under setting [1], the AC50 is 1.26 µM [falling, full curve, poor fit].

As to `Cc1ccc(NC(=O)CN2C(=O)S/C(=C/c3ccc(O)c([N+](=O)[O-])c3)C2=O)cc1C`, the AC50 is, setting by setting: under setting [2], 8.91 µM [falling, partial curve, poor fit]; under setting [1], 11.2 µM [falling, partial curve, poor fit].

Turning to `Cc1ccc(S(=O)(=O)N2CCN(C(=O)CSc3ncc(C(F)(F)F)cc3Cl)CC2)cc1`, under setting [1], the AC50 was 31.6 µM [rising, single point].

For `CCOc1ccc(OC(=O)c2cn(-c3ccc(C)cc3)c(=O)c3ccccc23)cc1`, under setting [1], the AC50 was 2.24 µM [rising, partial curve, poor fit].

Turning to `O=C(Cc1ccc(Cl)c(Cl)c1)Nc1ccc(SC(F)F)cc1`, under setting [1], the AC50 is 35.5 µM [rising, single point].

On to `O=C(CCN1CCOCC1)c1ccc(Br)cc1`, for which the half-maximal activity concentration (AC50) by setting is: under setting [2], 8.91 µM [falling, partial curve]; under setting [1], 11.2 µM [falling, partial curve].

For `Cc1ccc(OC(=O)c2cc(=O)c3ccccc3o2)cc1`, the concentration at half-maximal activity (AC50) under setting [2] is 0.141 µM [rising, full curve, poor fit].

As to `O=C1CCCC(=O)N1c1ccc(N2CCN(c3ccc([N+](=O)[O-])cc3)CC2)c([N+](=O)[O-])c1`, the AC50 by setting is: under setting [2], 31.6 µM [rising, single point]; under setting [1], 35.5 µM [rising, single point].

In the case of `S=C(NCCc1ccc(Cl)cc1)Nc1ccc(Cl)cc1Cl`, the AC50 under setting [1] is 11.2 µM [rising, partial curve].

For the compound `CC1(C)Cc2nc3sc4c(N(CCO)CCO)nnnc4c3cc2CO1`, the AC50 is, setting by setting: under setting [2], 0.00316 µM [rising, full curve, poor fit]; under setting [1], 0.00316 µM [rising, full curve, poor fit].

(Values after PubChem BioAssay AID1487 (National Center for Advancing Translational Sciences (NCATS), 2009).)
